Measurements: patent US20220204613A1 (D 10 THERAPEUTICS, published 2022)
No constants are given. Whether binding was seen depends on the method and setting. Some binding calls cover weakened binding; strength is not graded here.

Protein sequences, listed by entry. Tags and fused reporters are not part of them. Lines headed by an entry give the natural chain unless they say otherwise; changes in a name come on top.
UniProt Q08722: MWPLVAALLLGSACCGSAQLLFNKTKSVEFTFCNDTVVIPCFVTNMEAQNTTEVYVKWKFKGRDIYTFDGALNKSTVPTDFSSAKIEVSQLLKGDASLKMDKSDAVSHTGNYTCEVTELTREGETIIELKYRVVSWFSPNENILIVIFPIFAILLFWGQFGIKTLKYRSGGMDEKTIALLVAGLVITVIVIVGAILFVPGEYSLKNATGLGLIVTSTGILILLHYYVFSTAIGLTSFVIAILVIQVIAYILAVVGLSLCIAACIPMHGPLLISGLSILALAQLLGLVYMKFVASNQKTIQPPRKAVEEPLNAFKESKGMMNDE

Assays:
human CD47 protein [1] = molecular target: T1, human CD47 protein (human, UniProt Q08722 19-139, limits assumed); assay: affinity ranking of humanized antibodies from supernatant against human CD47 protein (sensorgrams)
T1 construct: also called human CD47 antigen

human CD47 protein [2] = molecular target: T1, human CD47 protein; assay: SPR affinity ranking from supernatant
human CD47 protein [3] = molecular target: T1, human CD47 protein; assay: binding confirmation of the chimeric antibody (SPR / ELISA)

B1: VH1+VL1 (antibody, human IgG4 S228P, kappa, V domains shown)
VH: QVQLVQSGAEVKKPGASVKVSCKASGYTFTSSVIHWVRQAPGQGLEWMGYINPYSDGTKFNEKCKIRVTMTRDTSISTAYMELSRLRSDDTAVYYCARGLIGTRYDSWFAYWGQGTLVTVSS
VL: DIQMTQSPSSLSASVGDRVTITCRTSQDINNYLNWYQQKPGKAPKLLIYYTSRLHSGVPSRFSGSGSGTDFTFTISSLQPEDIATYYCQQGNTLPYTFGGGTKVEIKR
notes: Humanized IgG, hIgG4 CH (S228P) and human kappa CL; Tested from supernatant; also called U0959FD090-VH1 + U0959FD090-VL1
With B1 as the binder, how does the binding (human CD47 protein [1]) read?
The binding was “binds”.

And the binding (human CD47 protein [2])?
The binding was “binds”.

B2: VH1+VL2 (antibody, human IgG4 S228P, kappa, V domains shown)
VH: QVQLVQSGAEVKKPGASVKVSCKASGYTFTSSVIHWVRQAPGQGLEWMGYINPYSDGTKFNEKCKIRVTMTRDTSISTAYMELSRLRSDDTAVYYCARGLIGTRYDSWFAYWGQGTLVTVSS
VL: DIQMTQSPSSLSASVGDRVTITCRTSQDINNYLNWYQQKPGKAVKLLIYYTSRLHSGVPSRFSGSGSGTDFTFTISSLQPEDIATYFCQQGNTLPYTFGGGTKVEIKR
notes: Humanized IgG, hIgG4 CH (S228P) and human kappa CL; leader residues 1-19 of each entry left out; Tested from supernatant; also called U0959FD090-VH1 + U0959FD090-VL2
What does the source list for B2?
binding (human CD47 protein [1]): binds; binding (human CD47 protein [2]): binds

B3: VH1+VL3 (antibody, human IgG4 S228P, kappa, V domains shown)
VH: QVQLVQSGAEVKKPGASVKVSCKASGYTFTSSVIHWVRQAPGQGLEWMGYINPYSDGTKFNEKCKIRVTMTRDTSISTAYMELSRLRSDDTAVYYCARGLIGTRYDSWFAYWGQGTLVTVSS
VL: DIQMTQSPSSLSASVGDRVTITCRTSQDINNYLNWYQQKPGKAVKLLIYYTSRLHSGVPSRFSGSGSGTDYTFTISSLQPEDIATYFCQQGNTLPYTFGGGTKVEIKR
notes: Humanized IgG, hIgG4 CH (S228P) and human kappa CL; leader residues 1-19 of each entry left out; Tested from supernatant; also called U0959FD090-VH1 + U0959FD090-VL3
What does the source list for B3?
binding (human CD47 protein [1]): binds; binding (human CD47 protein [2]): binds

B4: chimeric-VH+VL2 (antibody, human IgG4, V domains shown)
VH: EVQLQQSGPELVKPGASVKLSCKASGYTFTSSVIHWVKQKPGQGLEWLGYINPYSDGTKFNEKCKIKATLTSDKSSSTAYMELSSLTSEDSAVYYCARGLIGTRYDSWFAYWGQGTLVTVSA
VL: DIQMNQSPSSLSASLGDTITITCHASQNINVWLSWYQQKPGNIPKLLIYKASNLHTGVPSRFSGSGSGTGFTLTISSLQPEDIATYYCQQGQSYPLTFGAGTKLELK
With B4 as the binder, how does the binding (human CD47 protein [3]) read?
The binding was “binds”.
